Results are given in words; binding and its absence hold for the method and conditions named. In cells and extracts the contact can be indirect. Some binding calls cover weakened binding; strength is not graded here.
T1: Rad17 (human (endogenous in ESCC cells)) (UniProt O75943)
T1 sequence: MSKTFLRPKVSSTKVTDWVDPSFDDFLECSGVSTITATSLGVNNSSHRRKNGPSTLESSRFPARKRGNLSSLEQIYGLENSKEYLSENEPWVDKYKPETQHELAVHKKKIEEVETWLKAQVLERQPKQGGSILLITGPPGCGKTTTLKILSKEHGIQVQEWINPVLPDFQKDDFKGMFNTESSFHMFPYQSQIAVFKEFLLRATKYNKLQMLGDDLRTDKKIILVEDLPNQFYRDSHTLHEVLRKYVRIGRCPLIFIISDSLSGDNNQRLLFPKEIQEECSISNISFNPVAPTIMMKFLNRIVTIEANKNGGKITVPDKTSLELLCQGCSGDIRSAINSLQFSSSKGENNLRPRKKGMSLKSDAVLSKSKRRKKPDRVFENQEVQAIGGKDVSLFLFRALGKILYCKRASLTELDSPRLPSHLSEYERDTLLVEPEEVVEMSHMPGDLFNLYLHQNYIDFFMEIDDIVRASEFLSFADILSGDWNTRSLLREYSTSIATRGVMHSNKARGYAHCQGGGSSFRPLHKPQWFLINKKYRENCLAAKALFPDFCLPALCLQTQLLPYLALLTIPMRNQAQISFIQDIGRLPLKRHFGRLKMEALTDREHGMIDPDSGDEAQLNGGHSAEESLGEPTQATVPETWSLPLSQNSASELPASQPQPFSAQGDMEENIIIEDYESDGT

Chains of the proteins cited; added tags and fusions are not shown.
UniProt P40938: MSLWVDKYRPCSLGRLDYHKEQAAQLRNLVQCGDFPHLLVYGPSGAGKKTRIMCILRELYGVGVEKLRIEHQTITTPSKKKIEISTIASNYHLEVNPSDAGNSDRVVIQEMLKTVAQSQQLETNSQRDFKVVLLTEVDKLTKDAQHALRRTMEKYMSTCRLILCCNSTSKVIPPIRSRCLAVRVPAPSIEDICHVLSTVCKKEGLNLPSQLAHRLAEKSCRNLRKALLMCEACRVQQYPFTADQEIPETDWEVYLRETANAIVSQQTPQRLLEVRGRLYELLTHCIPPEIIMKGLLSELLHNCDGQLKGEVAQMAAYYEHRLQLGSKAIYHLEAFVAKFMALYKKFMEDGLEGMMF
UniProt P35249: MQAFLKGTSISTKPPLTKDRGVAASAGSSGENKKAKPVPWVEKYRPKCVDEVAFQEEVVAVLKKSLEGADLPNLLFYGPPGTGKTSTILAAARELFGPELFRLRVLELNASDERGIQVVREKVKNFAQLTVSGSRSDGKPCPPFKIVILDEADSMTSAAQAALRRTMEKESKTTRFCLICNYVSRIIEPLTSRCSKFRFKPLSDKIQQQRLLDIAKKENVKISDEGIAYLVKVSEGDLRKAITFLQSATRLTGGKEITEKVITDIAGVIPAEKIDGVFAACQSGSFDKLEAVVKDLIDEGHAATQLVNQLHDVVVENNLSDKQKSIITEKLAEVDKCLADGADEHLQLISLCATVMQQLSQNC


Assays:
[1] = biological target: T1, Rad17 (human (endogenous in ESCC cells)); assay: co-IP; Rad17 CoIP from cell lysate (Pierce IP lysis buffer, 2 ug antibody overnight at 4 °C, protein A/G sepharose beads), immunoblot for RFC3/4; cells with or without NELFA mRNA ASO knockdown
[2] = biological target: RFC3 (human (endogenous in ESCC cells)) (UniProt P40938); assay: co-IP; RFC3/4 CoIP from cell lysate (Pierce IP lysis buffer, 2 ug antibody overnight at 4 °C, protein A/G sepharose beads), immunoblot; cells with or without NELFA mRNA ASO knockdown
[3] = biological target: RFC4 (human (endogenous in ESCC cells)) (UniProt P35249); assay: as above

| binding [1] | binding [2] | binding [3] | Molecule |
| --- | --- | --- | --- |
| binds | – | – | RFC4 (from UniProt P35249 1-363) |
| binds | – | – | RFC3 (from UniProt P40938 1-356) |
| – | binds | binds | Rad17 (protein, UniProt O75943 1-681) MSKTFLRPKVSSTKVTDWVDPSFDDFLECSGVSTITATSLGVNNSSHRRKNGPSTLESSRFPARKRGNLSSLEQIYGLENSKEYLSENEPWVDKYKPETQHELAVHKKKIEEVETWLKAQVLERQPKQGGSILLITGPPGCGKTTTLKILSKEHGIQVQEWINPVLPDFQKDDFKGMFNTESSFHMFPYQSQIAVFKEFLLRATKYNKLQMLGDDLRTDKKIILVEDLPNQFYRDSHTLHEVLRKYVRIGRCPLIFIISDSLSGDNNQRLLFPKEIQEECSISNISFNPVAPTIMMKFLNRIVTIEANKNGGKITVPDKTSLELLCQGCSGDIRSAINSLQFSSSKGENNLRPRKKGMSLKSDAVLSKSKRRKKPDRVFENQEVQAIGGKDVSLFLFRALGKILYCKRASLTELDSPRLPSHLSEYERDTLLVEPEEVVEMSHMPGDLFNLYLHQNYIDFFMEIDDIVRASEFLSFADILSGDWNTRSLLREYSTSIATRGVMHSNKARGYAHCQGGGSSFRPLHKPQWFLINKKYRENCLAAKALFPDFCLPALCLQTQLLPYLALLTIPMRNQAQISFIQDIGRLPLKRHFGRLKMEALTDREHGMIDPDSGDEAQLNGGHSAEESLGEPTQATVPETWSLPLSQNSASELPASQPQPFSAQGDMEENIIIEDYESDGT |

Source: article PMC7053240
